These are yes or no findings as the source states them, for the method shown. In cells and extracts the contact can be indirect. Binding can be weak; no strength is given. Each block holds one binder with its values, some of them ahead of it.
Experiments:
[1] = molecular target: GST-fused C-tail of the muscarinic M1 acetylcholine receptor (residues 414–460); experiment: pull-down; GST-fused receptor C-tails immobilized on glutathione-Sepharose beads, incubated with [35S]-labelled in vitro translated GASPs 1 h at 4°C; 20 mM Tris-HCl pH 7.4, 150 mM NaCl, 1 mM EDTA, 1 mM DTT, 10% glycerol, 1% Triton X-100; Phosphor-imager quantification; only the target purified
[2] = molecular target: GST-fused C-tail of the β1 adrenergic receptor (residues 373–477); experiment: as above
[3] = molecular target: GST-fused C-tail of the δ-opioid receptor (residues 314–372); experiment: as above
[4] = molecular target: N-terminal GFP-tagged CALCR (UniProt P30988); experiment: co-IP; lysates of HEK293 cells stably expressing GFP-tagged receptors or MyrPalm-mYFP and transfected with the central domain of GASP-1; anti-GFP antibody and protein A-Sepharose; blot with anti-GASP serum; 0.3% Triton X-100

Protein sequences, listed by entry. Tags and fused reporters are not part of them. Lines headed by an entry give the natural chain unless they say otherwise; changes in a name come on top.
UniProt P30988: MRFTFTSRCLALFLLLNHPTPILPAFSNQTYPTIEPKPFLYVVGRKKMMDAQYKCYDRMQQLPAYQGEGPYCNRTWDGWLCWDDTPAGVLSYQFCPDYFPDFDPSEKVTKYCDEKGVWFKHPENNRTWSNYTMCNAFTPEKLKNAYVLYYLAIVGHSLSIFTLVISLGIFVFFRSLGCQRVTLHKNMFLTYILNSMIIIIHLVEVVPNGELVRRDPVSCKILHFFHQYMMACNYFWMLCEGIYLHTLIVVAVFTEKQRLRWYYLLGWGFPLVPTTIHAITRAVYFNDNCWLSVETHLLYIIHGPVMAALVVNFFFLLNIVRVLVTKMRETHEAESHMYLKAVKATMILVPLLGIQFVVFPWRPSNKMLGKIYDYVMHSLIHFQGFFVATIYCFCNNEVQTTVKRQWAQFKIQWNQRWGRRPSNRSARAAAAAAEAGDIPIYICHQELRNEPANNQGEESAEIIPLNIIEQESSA

binding [1]: binds
binding [2]: binds
binding [3]: binds
B1: GASP-1 truncated mutant 380–1395 (domain or fragment, UniProt Q5JY77 380-1395)
chain: MTKEEAKTKARARAKQEARSEEEALIGTWFWATDESSMADEASIESSLQVEDESIIGSWFWTEEEASMGTGASSKSRPRTDGERIGDSLFGAREKTSMKTGAEATSESILAADDEQVIIGSWFWAGEEVNQEAEEETIFGSWFWVIDAASVESGVGVSCESRTRSEEEEVIGPWFWSGEQVDIEAGIGEEARPGAEEETIFGSWFWAENQTYMDCRAETSCDTMQGAEEEEPIIGSWFWTRVEACVEGDVNSKSSLEDKEEAMIPCFGAKEEVSMKHGTGVRCRFMAGAEETNNKSCFWAEKEPCMYPAGGGSWKSRPEEEEDIVNSWFWSRKYTKPEAIIGSWLWATEESNIDGTGEKAKLLTEEETIINSWFWKEDEAISEATDREESRPEAEEGDIIGSWFWAGEEDRLEPAAETREEDRLAAEKEGIVGSWFGAREETIRREAGSCSKSSPKAEEEEVIIGSWFWEEEASPEAVAGVGFESKPGTEEEEITVGSWFWPEEEASIQAGSQAVEEMESETEEETIFGSWFWDGKEVSEEAGPCCVSKPEDDEEMIVESWFWSRDKAIKETGTVATCESKPENEEGAIVGSWFEAEDEVDNRTDNGSNCGSRTLADEDEAIVGSWFWAGDEAHFESNPSPVFRAICRSTCSVEQEPDPSRRPQSWEEVTVQFKPGPWGRVGFPSISPFRFPKEAASLFCEMFGGKPRNMVLSPEGEDQESLLQPDQPSPEFPFQYDPSYRSVQEIREHLRAKESTEPESSSCNCIQCELKIGSEEFEELLLLMEKIRDPFIHEISKIAMGMRSASQFTRDFIRDSGVVSLIETLLNYPSSRVRTSFLENMIRMAPPYPNLNIIQTYICKVCEETLAYSVDSPEQLSGIRMIRHLTTTTDYHTLVANYMSGFLSLLATGNAKTRFHVLKMLLNLSENLFMTKELLSAEAVSEFIGLFNREETNDNIQIVLAIFENIGNNIKKETVFSDDDFNIEPLISAFHKVEKFAKELQGKTDNQNDPEGDQEN
modifications: [35S]-methionine labelled

binding [4]: binds
B2: central domain of GASP-1 (AA 380 to 1073) expressed in HEK293 cells (domain or fragment, UniProt Q5JY77 380-1073)
chain: MTKEEAKTKARARAKQEARSEEEALIGTWFWATDESSMADEASIESSLQVEDESIIGSWFWTEEEASMGTGASSKSRPRTDGERIGDSLFGAREKTSMKTGAEATSESILAADDEQVIIGSWFWAGEEVNQEAEEETIFGSWFWVIDAASVESGVGVSCESRTRSEEEEVIGPWFWSGEQVDIEAGIGEEARPGAEEETIFGSWFWAENQTYMDCRAETSCDTMQGAEEEEPIIGSWFWTRVEACVEGDVNSKSSLEDKEEAMIPCFGAKEEVSMKHGTGVRCRFMAGAEETNNKSCFWAEKEPCMYPAGGGSWKSRPEEEEDIVNSWFWSRKYTKPEAIIGSWLWATEESNIDGTGEKAKLLTEEETIINSWFWKEDEAISEATDREESRPEAEEGDIIGSWFWAGEEDRLEPAAETREEDRLAAEKEGIVGSWFGAREETIRREAGSCSKSSPKAEEEEVIIGSWFWEEEASPEAVAGVGFESKPGTEEEEITVGSWFWPEEEASIQAGSQAVEEMESETEEETIFGSWFWDGKEVSEEAGPCCVSKPEDDEEMIVESWFWSRDKAIKETGTVATCESKPENEEGAIVGSWFEAEDEVDNRTDNGSNCGSRTLADEDEAIVGSWFWAGDEAHFESNPSPVFRAICRSTCSVEQEPDPSRRPQSWEEVTVQFKPGPWGRVGFPSISPFRFPKE

Reference: article PMC3575409, “Identification of a Novel Protein-Protein Interaction Motif Mediating Interaction of GPCR-Associated Sorting Proteins with G Protein-Coupled Receptors” (PLoS ONE, 2013)
